According to the supplement of paper PMC3334620:
Over roughly 33,000 sequences, “E-score (-0.5 to 0.5)” has its median near -0.0014; the highest 2% begin near 0.25. This is one part of the list.

target: T1, Cad1 (UniProt P24813); assay: PBM E-score (8-mer binding enrichment) (E-score (-0.5 to 0.5)); higher = stronger / more preferred TF binding; settings: protein concentration: 100 nM; construct: GST-full length
T1 sequence: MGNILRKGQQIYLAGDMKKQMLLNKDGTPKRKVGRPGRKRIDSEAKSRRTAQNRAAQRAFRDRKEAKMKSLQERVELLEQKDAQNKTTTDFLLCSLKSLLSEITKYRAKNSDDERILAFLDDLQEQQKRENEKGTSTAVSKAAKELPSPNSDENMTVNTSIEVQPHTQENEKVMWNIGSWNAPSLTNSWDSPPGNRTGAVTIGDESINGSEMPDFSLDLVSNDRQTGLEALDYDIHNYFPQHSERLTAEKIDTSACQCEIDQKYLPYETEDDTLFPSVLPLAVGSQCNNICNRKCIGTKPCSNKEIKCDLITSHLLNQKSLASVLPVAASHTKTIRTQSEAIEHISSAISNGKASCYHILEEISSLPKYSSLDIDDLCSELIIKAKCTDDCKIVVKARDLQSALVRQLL
Experimental: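 Universal 'all 10-mer' protein binding microarrays (Agilent AMADID 015681) probed with GST-tagged S. cerevisiae TFs (full-length or DBD) made by in vitro transcription/translation (PURExpress), about 100-200 nM. Bound TF was detected with fluorescent anti-GST. Each ungapped 8-mer (which stands for itself and its reverse complement) is scored by the PBM enrichment score (E-score), a modified Wilcoxon-Mann-Whitney statistic from -0.5 to +0.5, computed with the Universal PBM Analysis Suite. Scale: above 0.35 generally sequence-specific binding.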

Sequence | PBM E-score
GTCGGCAC | -0.0765
ACGAATGC | 0.113
AGCCCAAT | -0.058
CACGTGAA | 0.0953
AGCACACG | -0.161
AAAATAAC | -0.0367
CGCGGACC | 0.0642
ATATGGCG | -0.0603
AGTGGATC | -0.0132
GGTCAAGA | -0.0653
CAGGGTAA | -0.0474
CAGGATCA | -0.0245
CCTACTAG | -0.0253
TATGGAAA | -0.0179
CGGACATC | 0.0581
CGCCGAAA | 0.108
CTCGATGC | -0.0657
GGCTACTA | -0.0539
GGTACGAC | -0.169
CATCCCAA | -0.085
CAGACAGA | -0.0256
ACGATCAT | -0.0415
CATATCTC | -0.117
GCCGAGAC | 0.043
CACTCCGC | 0.0444

Sequence | PBM E-score
GCACTCCA | -0.0817
ACTTTCAG | 0.00809
GCATTACA | 0.14
CAAAAACC | 0.0948
CTGACAGC | -0.0878
GCTGGGGA | -0.215
CTCGCACA | 0.132
ATGTGTCC | 0.0611
GGCTGGAA | -0.0352
CGTTTTGC | 0.0562
CCAAAGTC | -0.00757
CCCTGCAG | -0.107
CCTTCACG | 0.0821
GGCCAAGA | -0.178
CGTGAGAG | -0.234
AACTAAGT | 0.114
AAGCGATC | 0.183
TAATCCTA | 0.0127
AAACACAC | 0.1
AACATGAT | 0.146
CACGAACC | 0.0169
CGCAAGAG | 0.055
GGGGCTAC | -0.165
GGATAGAC | -0.0809
ACGGTACT | -0.0611

Sequence | PBM E-score
ACCTACAT | 0.00622
TGGTACCA | -0.0895
ACGACATG | 0.0587
CAGCAATC | 0.0251
GGGTTAGA | -0.23
CATCAACG | -0.0243
ACATCACT | 0.0912
GATAGGAC | -0.304
AAGAGTGT | -0.029
CAAGAAGA | -0.0138
AAAACCCG | 0.0798
CTATTCAC | 0.169
CCAGGGAC | -0.232
ATGTCTTC | -0.29
ACCCAAAC | 0.122
ATCCCCAC | -0.0698
CTAGTGAA | -0.0185
ATTCTTTG | 0.0568
ATTAAGGA | 0.07
GCCATTCA | 0.0337
AGCTGCGA | -0.123
GCTGATGA | 0.162
ACCTTCGC | -0.166
CAGCGGAG | 0.0275
GACCGGAC | -0.133

Sequence | PBM E-score
CACGAGTC | -0.0308
CTCTAATC | -0.126
CAAACGAG | -0.0412
ATATTGAA | 0.0967
AATCATAG | 0.0805
CAACAGCA | -0.00801
GTTCGTGA | -0.0799
AAGAGGCC | -0.222
AGCGCCCT | -0.0719
GGTAGACC | -0.201
GTGACCGA | -0.00409
GACCGACC | 0.0236
CAAAGTGG | -0.242
AGTACGTA | 0.115
ACGAAGCG | -0.00828
CACCACTG | -0.14
ATCGACGA | 0.0912
CCGACTAC | -0.0199
CAGGTCCA | 2e-05
CTTGCGCC | -0.0483
GGCTGACA | 0.313
CATTCGGC | -0.0238
AGCGGTCA | -0.154
TCTATTCA | 0.195
GCGAATCC | -0.0492

For convenience, some entries already given.
Sequence | PBM E-score
CGTGAGAG | -0.234
AACTAAGT | 0.114
AAGCGATC | 0.183
TAATCCTA | 0.0127
AAACACAC | 0.1
AACATGAT | 0.146

Following part:

Sequence | PBM E-score
ACCCGACT | 0.00464
AAGCCGAG | 0.114
ACGAGAGG | -0.183
AATACAGA | -0.00165
TACTTCTA | -0.0389
CGTACATA | 0.158
CTCCCTTC | -0.383
CTCTTGAC | -0.037
GTTTTGTA | 0.098
GACGCGAC | -0.102
AGCAAGAT | 0.069
AACGGGTC | -0.242
AGTGGATG | 0.0597
AACAAGAA | 0.124
TACCTGAA | 0.16
ACAGACCC | -0.211
AACATTCG | -0.0386
AATTACCG | 0.0902
GTTCAGAA | 0.109
AAAGCCCG | -0.126
CGGTGCCA | -0.121
AACTATCA | 0.141
CTGCGCGC | 0.302
GTATTACA | 0.234
AGATGGCA | 0.0766

Sequence | PBM E-score
ACCTGAGC | -0.092
ACTCAGAT | 0.107
ACGATTAA | 0.0443
TCCGCGCA | 0.134
AAAGGTGG | 0.0562
ACGGCCTA | 0.0633
GCTTCTCC | -0.27
ACAGTGAC | 0.0541
CATCGGCG | 0.0426
CGTCAATA | 0.00634
ATGCGGAC | -0.0449
CTGGTACC | -0.227
TTCGCCAA | -0.206
GCATAAGA | 0.108
CTCTGGAC | 0.0228
CTCGGCTA | 0.0462
ATAGTACC | 0.0266
AGACTCGA | -0.163
ATTTGGCG | 0.098
GGTACCAC | -0.125
ACTGTCCT | 0.09
AATTTCGG | 0.0189
AAATTTTG | -0.00931
AGCACTGC | -0.0698
AAGTCAGC | 0.244

Sequence | PBM E-score
ATTGCCAG | 0.0108
AATACCAC | -0.0105
GAACTATC | -0.147
CAGAACCG | 0.0261
CTAATCCA | 0.131
CAACAAAC | 0.0451
GTGCACAC | -0.0677
TAGCCCAA | -0.0331
ACACTCTG | -0.0387
ACTCTGCG | 0.0388
CCGCCACC | -0.144
ATAGCGCG | 0.175
AGGCTACG | -0.271
AGTTTTAA | 0.0556
GTAAAAAC | 0.161
GCTCCCTA | -0.331
CCTAAACG | -0.14
GCTCGGAA | -0.1
ACCGAACG | 0.122
GCGCGAAA | 0.308
AGCTGTGG | -0.117
AATGTAGG | -0.241
